# Primary screen of a compound library

From ChEMBL document CHEMBL3988442, “University of Dundee, Small-Polar-MMV Screening Library” (2021).

The filed quantity is “Percent Effect” (%).
The controls that fix the scale are not given in the record; negative values are as filed.
This is an unselected part of the compounds tested.
Two or more numbers in one place are separate tests of the same structure; such repeats can differ widely.

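Phenotypic screen: M. tuberculosis growth, glucose 7H9 medium, 3 days; the read-out is not stated. Tested at 50 µM. Direction is inferred from retests: higher values go with more growth inhibition. Of about 69,000 compounds tested this way, about 760 (1.1%) reached 50% or more in at least one test.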

{"structure": "Cc1cc(C(=O)N2CCc3ncc(CN4CCCCC4)n3CC2)no1", "effect": -22.46}
{"structure": "CC1CCCN(c2ccccc2OCC(=O)NC2CC2)C1", "stereo": "centres undefined", "effect": -1.549}
{"structure": "CN(C)C(=O)c1nnn(-c2ccc(Br)cc2)n1", "effect": 64.95}
{"structure": "CC(C)[C@@H]1CN(C(=O)C2(c3ccccc3)CCN(C)CC2)C[C@H]1C(=O)O", "effect": "-4.562 and 1.719"}
{"structure": "Cn1c(Cn2ccnc2)nnc1C1CCN(C(=O)c2ccccn2)CC1", "effect": -10.69}
{"structure": "CSc1ncnc(NCc2ccco2)c1C#N", "effect": "-3.598 and 15.27"}
{"structure": "C[C@@H]1CN(C(=O)[C@H]2CCCO2)C[C@]12CCN(c1ccsc1)C2=O", "effect": -6.76}
{"structure": "O=C(c1ccc(N2CCCC2)nc1)N1CCCC(n2cncn2)C1", "stereo": "centres undefined", "effect": -15.99}
{"structure": "NC(=O)COc1ccc(CNCc2c(F)cccc2F)cc1", "effect": -1.127}
{"structure": "COCCc1noc(CN(C)c2cc(C)ncn2)n1", "effect": -14.64}
{"structure": "CN(Cc1nnc(C2CC2)o1)C1CCN(CCCc2cnn(C)c2)C1", "stereo": "centres undefined", "effect": -4.622}
{"structure": "Cc1ccn2c(=O)cc(CSCC(=O)Nc3nnc(C(C)C)s3)nc2c1", "effect": -5.93}
{"structure": "CS(=O)(=O)CCn1ccc(NC(=O)CCc2cccc(F)c2)n1", "effect": 17.56}
{"structure": "N#Cc1cnc2ccccc2c1N1CCC(C(=O)O)CC1", "effect": -6.635}
{"structure": "CC(C)(C)c1cc(C[C@H]2CNCC[C@H]2CC(=O)NC2CCCCC2)no1", "effect": "-2.674 and -33.24"}
{"structure": "CNCc1ccc(Oc2cncc(C)n2)cc1", "effect": "16.03 and -2.384"}
{"structure": "CCCn1cc(C(=O)NCCC(=O)NC2CCCCC2)c(C)n1", "effect": -4.447}
{"structure": "CCCc1nc(C)c(C(=O)NC2CCN(CC(N)=O)CC2)s1", "effect": 11.47}
{"structure": "CNC(=O)c1cnc(/C=C/c2cc(OC)cc(OC)c2)s1", "effect": -18.63}
{"structure": "Cn1ccnc1C(=O)NCc1cc(=O)n2c(n1)CN(CC1CC1)CCC2", "effect": "6.016 and -2.594"}
{"structure": "Cc1cc(O)ncc1NS(=O)(=O)c1cccc(F)c1F", "effect": -29.48}
{"structure": "Cc1cnc(N(C)Cc2cnc3ccccc3n2)nc1N(C)C", "effect": "-6.917 and -13.11"}
{"structure": "CC(C)n1ccc2c(C(=O)NC3CN4CCC3CC4)cccc21", "stereo": "centres undefined", "effect": -0.6782}
{"structure": "[H][C@@]12CCN(Cc3c(C)noc3C)C[C@@]1([H])[C@H](C(=O)N1CCCO1)CCO2", "effect": 10.05}
{"structure": "CC(C)CC(NC(=O)c1cc(C2CC2)n[nH]1)c1ncnn1C", "stereo": "centres undefined", "effect": "-6.394 and -41.61"}
{"structure": "CCN1CC(C(=O)N2CC(Oc3ccccc3Cl)C2)CCC1=O", "stereo": "centres undefined", "effect": -1.604}
{"structure": "CCCn1nccc1C(=O)N1CCN(C2CCc3ccccc3C2)CC1", "stereo": "centres undefined", "effect": "-3.121 and 7.991"}
{"structure": "COc1coc(CN2CCCC(CCc3c(F)cccc3F)C2)cc1=O", "stereo": "centres undefined", "effect": "54.35 and 40.19"}
{"structure": "O=C(O)C(F)(F)F.O=C(O)C(F)(F)F.[H][C@@]12OCCN(Cc3nccs3)[C@@]1([H])CC[C@H]2OCc1cccc(C)n1", "effect": "-8.478 and 18.23"}
{"structure": "Cc1ccc(C(N)c2cccs2)cc1", "stereo": "centres undefined", "effect": -32.98}
{"structure": "CCOc1cc(NC(=O)N2CCOC3(CCC3)C2)ccc1C", "effect": 11.91}
{"structure": "CC(NC(=O)c1cccc(CCC(C)(C)O)c1)c1nnc(N)s1", "stereo": "centres undefined", "effect": "-27.03 and -6.295"}
{"structure": "N[C@H]1CN(C(=O)CCc2ccccn2)C[C@@H]1c1ccccc1", "effect": -28.27}
{"structure": "CC(SCCNS(=O)(=O)c1cnn(C)c1)c1cccs1", "stereo": "centres undefined", "effect": 7.185}
{"structure": "Cc1nnc(NCC(c2cccs2)N2CCCC2)c(C#N)c1C", "stereo": "centres undefined", "effect": -4.399}
{"structure": "COc1ncccc1CNC(=O)NC1CCOc2ccccc21", "stereo": "centres undefined", "effect": 21.71}
{"structure": "Cc1ncsc1CCC(=O)NC1CCN(c2ccc(Cl)nn2)CC1", "effect": "-22.85 and -3.034"}
{"structure": "COc1c(NC(=O)C(C)CCOc2ccccc2)c(C)nn1C", "stereo": "centres undefined", "effect": "-18.38 and 3.769"}
{"structure": "CC(C)(C)N1CC(C(=O)NCc2nc(C3CCCCC3)no2)CC1=O", "stereo": "centres undefined", "effect": 13.14}

For reference, 3 entries once more:

| structure | effect |
|---|---|
| `CN(Cc1nnc(C2CC2)o1)C1CCN(CCCc2cnn(C)c2)C1` (centres undefined) | -4.622 |
| `Cc1ncsc1CCC(=O)NC1CCN(c2ccc(Cl)nn2)CC1` | -22.85 and -3.034 |
| `O=C(c1ccc(N2CCCC2)nc1)N1CCCC(n2cncn2)C1` (centres undefined) | -15.99 |